Test results taken from patent publication US20050003420.

Chains of the proteins cited; added tags and fusions are not shown. Lines headed by an entry give the natural chain unless they say otherwise; changes in a name come on top.
UniProt P23657: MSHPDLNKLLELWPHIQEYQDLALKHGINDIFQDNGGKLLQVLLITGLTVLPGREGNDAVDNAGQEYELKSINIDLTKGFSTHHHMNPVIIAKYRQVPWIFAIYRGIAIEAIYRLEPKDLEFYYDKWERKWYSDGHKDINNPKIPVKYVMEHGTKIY

What was measured:
Assay in all cases: enzyme reaction in vitro
PvuII wild type = PvuII wild type (UniProt P23657); conditions: not detectable, data not shown; purified recombinant protein; only the site is given
PvuII K93R = PvuII K93R (UniProt P23657); conditions: NEB buffer 2, 37 C, 1.5 h; purified recombinant protein; protein details: His-tag; only the site is given
BsoBI D246T = molecular target: T1, BsoBI D246T (UniProt P70985); conditions: purified recombinant protein, only the site is given
T1 sequence (looked up, limits assumed): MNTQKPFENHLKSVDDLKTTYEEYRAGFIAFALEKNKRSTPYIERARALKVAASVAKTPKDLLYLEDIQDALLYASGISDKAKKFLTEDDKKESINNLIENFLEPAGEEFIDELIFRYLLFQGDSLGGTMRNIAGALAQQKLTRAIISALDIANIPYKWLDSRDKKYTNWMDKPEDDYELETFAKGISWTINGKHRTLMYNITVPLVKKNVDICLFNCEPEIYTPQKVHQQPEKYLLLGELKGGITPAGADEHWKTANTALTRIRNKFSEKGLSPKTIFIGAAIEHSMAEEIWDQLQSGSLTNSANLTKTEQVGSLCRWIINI

BsoBI D246S = molecular target: T2, BsoBI D246S (UniProt P70985); conditions: purified recombinant protein, only the site is given
T2 sequence (looked up, limits assumed): T1 sequence (looked up, limits assumed) with T246S

BsoBI D246C = molecular target: T3, BsoBI D246C (UniProt P70985); conditions: purified recombinant protein, only the site is given
T3 sequence (looked up, limits assumed): T1 sequence (looked up, limits assumed) with T246C

BsoBI M130A/D246A = molecular target: T4, BsoBI M130A/D246A (UniProt P70985); conditions: pZZ1, purified recombinant protein, only the site is given
T4 sequence (looked up, limits assumed): T1 sequence (looked up, limits assumed) with M130A, T246A

BsoBI D246A = molecular target: T5, BsoBI D246A (UniProt P70985); conditions: purified recombinant protein, only the site is given
T5 sequence (looked up, limits assumed): T1 sequence (looked up, limits assumed) with T246A

[1] = molecular target: T6, BsoBI restriction endonuclease (UniProt P70985); conditions: cleaved with almost equal efficiency to CCCGGG on pZZ1; purified recombinant protein; only the site is given
T6 sequence (looked up, limits assumed): T1 sequence (looked up, limits assumed) with T246D

[2] = molecular target: T7, BsoBI pseudorevertant 29e D246A/C317W (UniProt P70985); conditions: pZZ1; purified recombinant protein; only the site is given
T7 sequence (looked up, limits assumed): T1 sequence (looked up, limits assumed) with T246A, C317W

[3] = molecular target: T8, BsoBI pseudorevertant 8d N36K/D246A (UniProt P70985); conditions: pZZ1; purified recombinant protein; protein details: partially purified; only the site is given
T8 sequence (looked up, limits assumed): T1 sequence (looked up, limits assumed) with N36K, T246A

[4] = molecular target: BsoBI pseudorevertant 6c E46V/D61E/S94T/D246A (UniProt P70985); conditions: pZZ1; purified recombinant protein; protein details: partially purified; only the site is given
[5] = molecular target: T9, BsoBI pseudorevertant 9c (same as 11c) R38S/L62I/D112Y/N169T/L238F/D246A/A248S (UniProt P70985); conditions: pZZ1; purified recombinant protein; only the site is given
T9 sequence (looked up, limits assumed): T1 sequence (looked up, limits assumed) with R38S, L62I, D112Y, N169T, L238F, T246A, A248S

With “CAATTG (double strand) [pTYB1 1270 bp PCR fragment, MfeI site]” the “activity on this sequence” value (PvuII wild type) was “not active” and the activity on this sequence (ug protein required to cleave) (PvuII K93R) was over 10.

“CACTGT (double strand) [pTYB1 1270 bp PCR fragment, PmlI site]” was tested, and the “activity on this sequence” value (PvuII wild type) was “not active” and the activity on this sequence (ug protein required to cleave) (PvuII K93R) was over 10.

For “GTACCCGGGGAT (double strand) [pUC19/pZZ1 CCCGGG site]”, the “activity on this sequence” value (BsoBI D246T; about 4-fold lower activity than D246A) was “active”, the “activity on this sequence” value (BsoBI D246S; activity comparable to D246A, preferential CCCGGG cleavage) was “active” and the “activity on this sequence” value (BsoBI D246C; cleaved first at low enzyme concentration) was “active”. For the same sequence, the “activity on this sequence” value (BsoBI M130A/D246A) was “active” and the “activity on this sequence” value (BsoBI D246A; pUC19, 65 C, two preparations) was “less active”.

For “GTGCTCGAGGGG (double strand) [pZZ1 CTCGAG site]”, the “activity on this sequence” value (BsoBI D246T; not cleaved efficiently) was “less active”, the “activity on this sequence” value [1] was “active” and the “activity on this sequence” value (BsoBI D246S; not cleaved efficiently) was “less active”. For the same sequence, the “activity on this sequence” value (BsoBI D246C; cleaved at higher enzyme concentration) was “less active”, the “activity on this sequence” value [2] was “not active” and the “activity on this sequence” value (BsoBI M130A/D246A; only CCCGGG cleavage detected) was “not active”. The “activity on this sequence” value [3] was “active”, the “activity on this sequence” value [4] was “active” and the “activity on this sequence” value (BsoBI D246A; pZZ1, CCCGGG cleaved at least 64 times faster) was “not active”. The “activity on this sequence” value [5] was “not active”.

Substitutions are numbered along the chain they refer to. For some of these results: A negative result means that nothing was seen under these conditions. For some of these results: Where a protein sequence is shown, tags need not be part of it. For some of these results: Weaker means in comparison with the reference protein, sequence or condition of that experiment. For some of these results: Construct, isoform or probe ends are uncertain for at least one entry.
